From patent US4613586A, “Gastrin releasing peptide-like peptides” (Board of Trustees of the Leland Stanford Junior University, priority 1984, dated 1986)
At least one peptide structure holds a part that was inferred or is arguable (an end, a ring closure or a residue). No end group written: not given here.

What was measured:
Type in all cases: binding, rabbit
[1] = tested on: GRP(1-27) antisera Code R3-2; experiment: GRP carboxyterminal radioimmunoassay (crossreactivity, displacement of 125I-GRP(1-27) trace); conditions: for Percent Crossreactivity in RIA GRP(1-27) Code R3-2: antisera dilution 1:20,000, GRP(1-27) trace and standard, based on amount of unlabeled peptide for 50 percent displacement, highest concentration tested 1 μM
Description: (§1) Three GRP antisera were generated in rabbits against synthetic porcine GRP and GRP(1-16) (Peninsula Laboratories, San Carlos, CA) linked by a water soluble carbodiimide to bovine throglobulin (as described by Weber, E., Evans, C. J., Chang, J-K. and Barchas, J. D., J. Neurochem 38, 436-447 (1982). RIA conditions have been described in Weber, E., Evans, C. J., and Barchas, J. D., Nature 299, 77-79 (1982). Three GRP RIA's were utilized, the specificity of these RIA's is indicated in Table 1.
(§2) An antisera dilution of 1:20,000 for the GRP(1-27) R3-2 antisera and a dilution of 1:15,000 for the GRP(1-16) R2-6A were used for RIA. For these RIA's GRP(1-27) was used as ^125 I-trace and standard. An antisera dilution of 1:20,000 for GRP(1-16) R2-6B and GRP(1-16) trace and standard were used in the GRP(1-16) carboxyterminal assay. Crossreactivity was based on the amount of unlabeled peptide needed to obtain a 50 percent displacement of ^125 I-trace from the antisera. The highest concentration of unlabeled peptide tested was 1 μM.

[2] = tested on: GRP(1-16) antisera Code R2-6B; experiment: GRP(1-16) carboxyterminal radioimmunoassay (crossreactivity, displacement of 125I-GRP(1-16) trace); conditions: summary of Table 1
Description: as §1, §2

[3] = tested on: GRP(1-16) antisera Code R2-6A; experiment: GRP aminoterminal radioimmunoassay (crossreactivity, displacement of 125I-GRP(1-27) trace); conditions: summary of Table 1
Description: as §1, §2

Row | Compound | Percent Crossreactivity in RIA GRP(1-27) Code R3-2 [1] | Crossreactivity with GRP(1-16) carboxyterminal antisera (in words) [2] | Crossreactivity in GRP aminoterminal RIA (in words) [3] | Crossreactivity with GRP carboxyterminal antiserum (in words) ([1]; summary of Table 1)
1 | APVSVGGGTVLAK [GRP(1-13)] | 0% | little crossreactivity | crossreacted | 
2 | APVSVGGGTVLAKMYP-NH2 [GRP(1-16), Ala-Pro-Val-Ser-Val-Gly-Gly-Gly-Thr-Val-Leu-Ala-Lys-Met-Tyr-Pro-NH2] | 0% | crossreacted | crossreacted | not
3 | CSCC[C@H](NC(=O)[C@H](CC(C)C)NC(=O)[C@H](Cc1c[nH]cn1)NC(=O)CNC(=O)[C@@H](NC(=O)[C@H](C)NC(=O)[C@H](Cc1c[nH]c2ccccc12)NC(=O)[C@H](Cc1c[nH]cn1)NC(C)=O)C(C)C)C(N)=O [α-N--acetyl-GRP(20-27)] | 60% |  |  | 
